Data taken from the supplement of paper PMC12067093, “Discovery and optimisation of a covalent ligand for TRIM25 and its application to targeted protein ubiquitination” (Chemical Science, 2025).
Some of the results follow.

The chains behind the UniProt entries cited, without tags or fusion partners. Where a name states a change or a piece, a line headed by the entry shows the natural chain unless it says otherwise.
UniProt Q9NR31: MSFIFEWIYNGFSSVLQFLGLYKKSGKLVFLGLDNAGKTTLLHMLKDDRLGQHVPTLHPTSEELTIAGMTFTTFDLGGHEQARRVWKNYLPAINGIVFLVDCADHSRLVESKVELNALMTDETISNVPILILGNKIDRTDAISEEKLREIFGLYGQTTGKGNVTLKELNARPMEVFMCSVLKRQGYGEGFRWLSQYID
UniProt Q99590: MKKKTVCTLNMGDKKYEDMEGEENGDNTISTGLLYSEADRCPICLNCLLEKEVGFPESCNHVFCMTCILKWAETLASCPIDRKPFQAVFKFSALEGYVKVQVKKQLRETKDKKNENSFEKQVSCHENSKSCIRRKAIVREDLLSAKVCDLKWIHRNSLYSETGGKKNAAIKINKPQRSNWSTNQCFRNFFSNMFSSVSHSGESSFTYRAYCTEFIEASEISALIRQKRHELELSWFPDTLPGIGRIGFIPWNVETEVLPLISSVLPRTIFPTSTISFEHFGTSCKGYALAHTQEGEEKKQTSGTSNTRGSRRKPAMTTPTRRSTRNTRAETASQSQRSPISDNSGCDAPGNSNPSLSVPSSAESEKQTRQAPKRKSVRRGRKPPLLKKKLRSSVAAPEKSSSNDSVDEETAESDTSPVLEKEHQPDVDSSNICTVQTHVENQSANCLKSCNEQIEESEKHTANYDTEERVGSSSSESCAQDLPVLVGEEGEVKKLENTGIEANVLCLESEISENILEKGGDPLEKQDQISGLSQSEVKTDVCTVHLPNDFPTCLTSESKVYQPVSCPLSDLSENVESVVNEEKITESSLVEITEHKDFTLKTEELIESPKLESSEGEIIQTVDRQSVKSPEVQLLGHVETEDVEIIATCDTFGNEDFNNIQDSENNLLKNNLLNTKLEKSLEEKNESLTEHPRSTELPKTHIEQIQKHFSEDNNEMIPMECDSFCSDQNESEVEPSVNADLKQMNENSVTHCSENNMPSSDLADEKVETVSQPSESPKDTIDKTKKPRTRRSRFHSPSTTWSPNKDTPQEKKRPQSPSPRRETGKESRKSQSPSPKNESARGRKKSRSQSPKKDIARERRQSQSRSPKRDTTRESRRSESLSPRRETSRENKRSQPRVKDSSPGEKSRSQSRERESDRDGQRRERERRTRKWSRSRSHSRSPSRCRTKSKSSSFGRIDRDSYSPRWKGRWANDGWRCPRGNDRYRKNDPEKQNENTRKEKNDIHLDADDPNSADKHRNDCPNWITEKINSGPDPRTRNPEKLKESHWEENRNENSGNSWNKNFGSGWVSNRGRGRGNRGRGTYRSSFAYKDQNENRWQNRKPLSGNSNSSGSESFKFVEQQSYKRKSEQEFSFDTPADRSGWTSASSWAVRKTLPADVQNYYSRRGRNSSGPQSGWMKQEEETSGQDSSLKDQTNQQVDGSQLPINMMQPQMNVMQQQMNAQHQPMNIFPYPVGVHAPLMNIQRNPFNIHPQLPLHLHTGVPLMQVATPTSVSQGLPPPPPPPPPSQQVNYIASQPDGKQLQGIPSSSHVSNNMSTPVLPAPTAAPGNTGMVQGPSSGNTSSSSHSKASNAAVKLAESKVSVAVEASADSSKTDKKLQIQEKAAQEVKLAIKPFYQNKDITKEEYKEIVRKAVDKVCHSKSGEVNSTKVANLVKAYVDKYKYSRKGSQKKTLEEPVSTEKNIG
UniProt Q14160: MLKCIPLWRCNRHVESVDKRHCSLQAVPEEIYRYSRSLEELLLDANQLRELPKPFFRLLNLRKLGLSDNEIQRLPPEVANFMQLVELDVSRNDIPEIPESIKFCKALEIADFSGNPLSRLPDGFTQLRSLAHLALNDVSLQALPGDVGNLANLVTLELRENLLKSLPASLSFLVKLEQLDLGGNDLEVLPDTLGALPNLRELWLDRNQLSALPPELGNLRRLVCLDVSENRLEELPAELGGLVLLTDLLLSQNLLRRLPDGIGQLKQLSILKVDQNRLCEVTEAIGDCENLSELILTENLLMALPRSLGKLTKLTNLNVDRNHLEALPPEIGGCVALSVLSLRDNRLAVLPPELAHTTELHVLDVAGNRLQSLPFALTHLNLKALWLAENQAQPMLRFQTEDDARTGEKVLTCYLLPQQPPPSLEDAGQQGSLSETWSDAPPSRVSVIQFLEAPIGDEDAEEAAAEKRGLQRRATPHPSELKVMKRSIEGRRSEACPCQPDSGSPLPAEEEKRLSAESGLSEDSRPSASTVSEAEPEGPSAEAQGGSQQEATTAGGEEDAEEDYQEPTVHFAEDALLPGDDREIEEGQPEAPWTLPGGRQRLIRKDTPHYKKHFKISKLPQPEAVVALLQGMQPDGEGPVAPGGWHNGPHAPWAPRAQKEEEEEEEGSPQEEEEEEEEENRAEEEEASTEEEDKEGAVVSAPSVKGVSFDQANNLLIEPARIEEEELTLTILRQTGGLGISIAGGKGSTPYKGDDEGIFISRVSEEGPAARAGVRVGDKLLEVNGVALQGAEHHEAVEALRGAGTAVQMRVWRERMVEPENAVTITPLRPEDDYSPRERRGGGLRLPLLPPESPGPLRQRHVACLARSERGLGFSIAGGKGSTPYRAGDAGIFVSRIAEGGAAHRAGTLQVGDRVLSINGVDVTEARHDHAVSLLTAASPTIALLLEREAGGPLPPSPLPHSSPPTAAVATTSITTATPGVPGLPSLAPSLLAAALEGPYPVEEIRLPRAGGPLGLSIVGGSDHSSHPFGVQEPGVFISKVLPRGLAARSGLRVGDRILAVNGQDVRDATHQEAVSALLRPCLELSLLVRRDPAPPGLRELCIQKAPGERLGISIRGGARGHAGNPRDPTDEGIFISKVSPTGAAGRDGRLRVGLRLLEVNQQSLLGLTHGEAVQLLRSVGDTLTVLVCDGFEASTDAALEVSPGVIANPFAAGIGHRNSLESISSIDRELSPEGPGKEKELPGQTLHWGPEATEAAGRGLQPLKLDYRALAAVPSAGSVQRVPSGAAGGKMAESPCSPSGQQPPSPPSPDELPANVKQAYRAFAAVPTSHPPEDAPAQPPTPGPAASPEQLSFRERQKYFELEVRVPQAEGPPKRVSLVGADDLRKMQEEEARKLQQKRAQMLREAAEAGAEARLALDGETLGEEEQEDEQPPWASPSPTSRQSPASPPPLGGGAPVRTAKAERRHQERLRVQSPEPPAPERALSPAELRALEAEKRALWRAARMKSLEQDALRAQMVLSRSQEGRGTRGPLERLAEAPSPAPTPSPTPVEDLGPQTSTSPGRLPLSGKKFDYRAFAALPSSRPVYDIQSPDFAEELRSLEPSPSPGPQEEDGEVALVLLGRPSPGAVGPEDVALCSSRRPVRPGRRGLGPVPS
UniProt Q9UQR0: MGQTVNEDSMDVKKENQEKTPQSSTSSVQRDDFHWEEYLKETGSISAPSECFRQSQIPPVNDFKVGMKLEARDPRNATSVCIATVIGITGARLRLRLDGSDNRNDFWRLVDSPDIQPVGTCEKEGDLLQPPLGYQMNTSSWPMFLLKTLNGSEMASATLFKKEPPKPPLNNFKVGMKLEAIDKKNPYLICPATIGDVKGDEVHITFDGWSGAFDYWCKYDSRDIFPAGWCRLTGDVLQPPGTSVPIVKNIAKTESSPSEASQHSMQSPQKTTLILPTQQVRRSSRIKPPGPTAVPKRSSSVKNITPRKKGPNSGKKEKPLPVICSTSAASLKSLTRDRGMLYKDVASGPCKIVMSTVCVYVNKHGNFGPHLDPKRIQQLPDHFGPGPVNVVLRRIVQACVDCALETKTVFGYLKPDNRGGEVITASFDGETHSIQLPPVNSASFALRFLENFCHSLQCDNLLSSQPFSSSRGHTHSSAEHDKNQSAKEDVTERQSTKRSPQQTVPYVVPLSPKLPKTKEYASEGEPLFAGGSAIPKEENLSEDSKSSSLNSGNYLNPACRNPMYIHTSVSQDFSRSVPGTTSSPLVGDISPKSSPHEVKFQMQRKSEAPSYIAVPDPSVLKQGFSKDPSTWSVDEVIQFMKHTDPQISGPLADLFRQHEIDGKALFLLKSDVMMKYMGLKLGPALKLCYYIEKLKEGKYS
UniProt Q15020: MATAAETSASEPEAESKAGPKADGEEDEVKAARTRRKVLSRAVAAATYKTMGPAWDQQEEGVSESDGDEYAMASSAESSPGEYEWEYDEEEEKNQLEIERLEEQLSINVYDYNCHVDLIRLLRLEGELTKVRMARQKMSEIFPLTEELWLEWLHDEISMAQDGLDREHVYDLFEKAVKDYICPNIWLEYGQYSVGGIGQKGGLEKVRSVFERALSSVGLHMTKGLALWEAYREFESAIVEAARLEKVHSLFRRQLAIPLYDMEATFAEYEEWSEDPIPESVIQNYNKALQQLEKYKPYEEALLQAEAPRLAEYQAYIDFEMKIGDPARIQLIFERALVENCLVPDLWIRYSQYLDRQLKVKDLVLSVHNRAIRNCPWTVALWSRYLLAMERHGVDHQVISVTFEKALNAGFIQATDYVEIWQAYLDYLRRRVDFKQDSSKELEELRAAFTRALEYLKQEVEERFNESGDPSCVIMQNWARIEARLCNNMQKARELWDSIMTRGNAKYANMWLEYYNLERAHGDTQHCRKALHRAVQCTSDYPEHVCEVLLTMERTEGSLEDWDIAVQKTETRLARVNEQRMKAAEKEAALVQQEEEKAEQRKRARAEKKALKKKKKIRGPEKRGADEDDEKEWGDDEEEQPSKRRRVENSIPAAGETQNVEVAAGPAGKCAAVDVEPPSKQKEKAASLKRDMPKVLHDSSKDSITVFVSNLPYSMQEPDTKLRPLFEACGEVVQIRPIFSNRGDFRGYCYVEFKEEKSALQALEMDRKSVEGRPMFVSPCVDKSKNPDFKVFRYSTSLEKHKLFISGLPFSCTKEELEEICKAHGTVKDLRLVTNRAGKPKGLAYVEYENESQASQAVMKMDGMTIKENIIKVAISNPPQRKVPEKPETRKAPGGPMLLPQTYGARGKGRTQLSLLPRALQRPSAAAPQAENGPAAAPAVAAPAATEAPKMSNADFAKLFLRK
UniProt Q8NBX0: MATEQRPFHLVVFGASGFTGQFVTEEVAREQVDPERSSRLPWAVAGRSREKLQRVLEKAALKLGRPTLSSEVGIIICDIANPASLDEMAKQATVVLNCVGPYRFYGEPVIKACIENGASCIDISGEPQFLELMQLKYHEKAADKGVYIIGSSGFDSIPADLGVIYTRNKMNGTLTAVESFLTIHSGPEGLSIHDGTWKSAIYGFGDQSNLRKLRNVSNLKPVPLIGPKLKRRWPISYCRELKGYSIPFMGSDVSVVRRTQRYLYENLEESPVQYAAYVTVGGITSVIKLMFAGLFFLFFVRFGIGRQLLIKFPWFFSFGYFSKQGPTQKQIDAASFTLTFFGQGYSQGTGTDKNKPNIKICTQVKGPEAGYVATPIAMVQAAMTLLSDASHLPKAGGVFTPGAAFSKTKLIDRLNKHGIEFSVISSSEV
UniProt Q96NL6: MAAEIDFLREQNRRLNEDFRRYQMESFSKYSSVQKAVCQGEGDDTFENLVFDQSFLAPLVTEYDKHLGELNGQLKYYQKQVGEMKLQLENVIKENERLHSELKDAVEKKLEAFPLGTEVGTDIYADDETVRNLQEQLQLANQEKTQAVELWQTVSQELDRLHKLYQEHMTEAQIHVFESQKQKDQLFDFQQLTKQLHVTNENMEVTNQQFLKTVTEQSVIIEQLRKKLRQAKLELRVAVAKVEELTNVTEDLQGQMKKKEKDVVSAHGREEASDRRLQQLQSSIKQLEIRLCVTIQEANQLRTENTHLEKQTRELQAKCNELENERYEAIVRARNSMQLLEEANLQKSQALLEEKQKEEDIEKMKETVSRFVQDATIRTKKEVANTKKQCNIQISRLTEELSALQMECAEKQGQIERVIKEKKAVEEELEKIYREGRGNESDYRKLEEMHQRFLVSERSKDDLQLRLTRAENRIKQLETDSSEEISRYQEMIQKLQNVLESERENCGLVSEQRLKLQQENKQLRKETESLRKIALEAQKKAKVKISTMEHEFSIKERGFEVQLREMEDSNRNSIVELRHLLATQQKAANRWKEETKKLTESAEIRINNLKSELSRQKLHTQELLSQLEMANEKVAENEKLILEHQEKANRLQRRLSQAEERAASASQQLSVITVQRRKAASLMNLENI
UniProt Q96IW7: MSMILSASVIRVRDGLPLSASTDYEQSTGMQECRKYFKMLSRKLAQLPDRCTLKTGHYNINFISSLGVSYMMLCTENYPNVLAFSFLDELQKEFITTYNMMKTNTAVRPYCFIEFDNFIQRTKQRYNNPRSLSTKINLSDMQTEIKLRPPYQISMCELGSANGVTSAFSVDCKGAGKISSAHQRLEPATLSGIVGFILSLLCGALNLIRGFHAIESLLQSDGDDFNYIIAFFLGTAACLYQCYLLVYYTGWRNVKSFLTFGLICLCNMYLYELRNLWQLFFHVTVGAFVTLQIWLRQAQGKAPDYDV

Compound: CC1Cc2ccccc2N1C(=O)C1CCCN(C1)C(=O)CCl (mixture of isomers) [TRIM25 ligand 11 (diastereomer mixture)]
Assay: probe-labelled cysteine peptide fold change vs DMSO (competition) (log2 fold change); higher = less target engagement (more negative = stronger competition)
Settings: THP-1, incubation time: 4 h
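Also: competitive chemoproteomic profiling in live THP-1 cells with an iodoacetamide desthiobiotin (IA-DTB) probe, comparing probe-labelled peptide intensities in compound-treated cells against DMSO-treated controls.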

In the case of “SAR1A_Q9NR31_178_ELNARPMEVFMCSVLKR (UniProt Q9NR31)”, the “probe-labelled cysteine peptide fold change” value (10 µM) is reported as -0.614 and the “probe-labelled cysteine peptide fold change” value (50 µM) is reported as -0.486.
With “SCAF11_Q99590_1020_HRNDCPNWITEK (UniProt Q99590)” the “probe-labelled cysteine peptide fold change” value (10 µM) was -0.0927 and the “probe-labelled cysteine peptide fold change” value (50 µM) was -0.0868.
For “SCRIB_Q14160_864_HVACLAR (UniProt Q14160)”, the “probe-labelled cysteine peptide fold change” value (10 µM) was 0.00547 and the “probe-labelled cysteine peptide fold change” value (50 µM) was -0.0399.
With “SCML2_Q9UQR0_458_FLENFCHSLQCDNLLSSQPFSSSR (UniProt Q9UQR0)” the “probe-labelled cysteine peptide fold change” value (10 µM) was -0.039 and the “probe-labelled cysteine peptide fold change” value (50 µM) was -0.179.
With “SART3_Q15020_780_PMFVSPCVDK (UniProt Q15020)” the “probe-labelled cysteine peptide fold change” value (10 µM) was 0.0628 and the “probe-labelled cysteine peptide fold change” value (50 µM) was -0.0727.
“SCCPDH_Q8NBX0_98_QATVVLNCVGPYR (UniProt Q8NBX0)” was tested, and the “probe-labelled cysteine peptide fold change” value (10 µM) was 0.0302 and the “probe-labelled cysteine peptide fold change” value (50 µM) was 0.137.
With “SCAF11_Q99590_450_SCNEQIEESEK (UniProt Q99590)” the “probe-labelled cysteine peptide fold change” value (10 µM) was -0.127 and the “probe-labelled cysteine peptide fold change” value (50 µM) was -0.271.
With “SCLT1_Q96NL6_319_CNELENERYEAIVR (UniProt Q96NL6)” the “probe-labelled cysteine peptide fold change” value (10 µM) was 0.0182 and the “probe-labelled cysteine peptide fold change” value (50 µM) was 0.00647.
With “SATB2_Q9UPW6_246_ENLSDYCVLGQR (UniProt Q9UPW6)” the “probe-labelled cysteine peptide fold change” value (10 µM) was 0.308 and the “probe-labelled cysteine peptide fold change” value (50 µM) was 0.0945.
“SEC22A_Q96IW7_111_TNTAVRPYCFIEFDNFIQR (UniProt Q96IW7)” was tested, and the “probe-labelled cysteine peptide fold change” value (10 µM) was -0.0683 and the “probe-labelled cysteine peptide fold change” value (50 µM) was -0.146.
